Data reported in ChEMBL document CHEMBL3085714 (J Med Chem, 2013).
The source gives many values for each of these; only a part stands here.

Assays:
Homo sapiens [1] = organism: Homo sapiens; test: Selectivity for p38alpha MAP kinase (unknown origin) over CDK2/CycE (unknown origin)
Homo sapiens [2] = organism: Homo sapiens; test: Selectivity for p38alpha MAP kinase (unknown origin) over FGFR1 V561M mutant (unknown origin)
Homo sapiens [3] = organism: Homo sapiens; test: Selectivity for p38alpha MAP kinase (unknown origin) over PHKG2 (unknown origin)
Homo sapiens [4] = organism: Homo sapiens; test: Selectivity for p38alpha MAP kinase (unknown origin) over PRK1 (unknown origin)
Homo sapiens [5] = organism: Homo sapiens; test: Selectivity for p38alpha MAP kinase (unknown origin) over NIK (unknown origin)
Homo sapiens [6] = organism: Homo sapiens; test: Selectivity for p38alpha MAP kinase (unknown origin) over GSK3-beta (unknown origin)
Homo sapiens [7] = organism: Homo sapiens; test: Selectivity for p38alpha MAP kinase (unknown origin) over DYRK3 (unknown origin)
Homo sapiens [8] = organism: Homo sapiens; test: Selectivity for p38alpha MAP kinase (unknown origin) over CDK5/p25NCK (unknown origin)
Homo sapiens [9] = organism: Homo sapiens; test: Selectivity for p38alpha MAP kinase (unknown origin) over EEF2K (unknown origin)
Homo sapiens [10] = organism: Homo sapiens; test: Selectivity for p38alpha MAP kinase (unknown origin) over EGFR T790M/L858R double mutant (unknown origin)
Homo sapiens [11] = organism: Homo sapiens; test: Selectivity for p38alpha MAP kinase (unknown origin) over PIM2 (unknown origin)
Homo sapiens [12] = organism: Homo sapiens; test: Selectivity for p38alpha MAP kinase (unknown origin) over PHKG1 (unknown origin)
Homo sapiens [13] = organism: Homo sapiens; test: Selectivity for p38alpha MAP kinase (unknown origin) over MELK (unknown origin)
Homo sapiens [14] = organism: Homo sapiens; test: Selectivity for p38alpha MAP kinase (unknown origin) over LIMK2 (unknown origin)
Homo sapiens [15] = organism: Homo sapiens; test: Selectivity for p38alpha MAP kinase (unknown origin) over CDK3/CycE (unknown origin)
Homo sapiens [16] = organism: Homo sapiens; test: Selectivity for p38alpha MAP kinase (unknown origin) over FGFR4 (unknown origin)
Homo sapiens [17] = organism: Homo sapiens; test: Selectivity for p38alpha MAP kinase (unknown origin) over CAMK2D (unknown origin)
Homo sapiens [18] = organism: Homo sapiens; test: Selectivity for p38alpha MAP kinase (unknown origin) over DAPK1 (unknown origin)
Homo sapiens [19] = organism: Homo sapiens; test: Selectivity for p38alpha MAP kinase (unknown origin) over RPS6KA2 (unknown origin)
Homo sapiens [20] = organism: Homo sapiens; test: Selectivity for p38alpha MAP kinase (unknown origin) over TSSK1 (unknown origin)
Homo sapiens [21] = organism: Homo sapiens; test: Selectivity for p38alpha MAP kinase (unknown origin) over DAPK3 (unknown origin)
Homo sapiens [22] = organism: Homo sapiens; test: Selectivity for p38alpha MAP kinase (unknown origin) over ABL1 Y253F mutant (unknown origin)
Homo sapiens [23] = organism: Homo sapiens; test: Selectivity for p38alpha MAP kinase (unknown origin) over MAP3K9 (unknown origin)
Homo sapiens [24] = organism: Homo sapiens; test: Selectivity for p38alpha MAP kinase (unknown origin) over CK2-alpha1 (unknown origin)
Homo sapiens [25] = organism: Homo sapiens; test: Selectivity for p38alpha MAP kinase (unknown origin) over EPHB3 (unknown origin)
Homo sapiens [26] = organism: Homo sapiens; test: Selectivity for p38alpha MAP kinase (unknown origin) over SLK (unknown origin)
Homo sapiens [27] = organism: Homo sapiens; test: Selectivity for p38alpha MAP kinase (unknown origin) over TRK-B (unknown origin)
Homo sapiens [28] = organism: Homo sapiens; test: Selectivity for p38alpha MAP kinase (unknown origin) over EIF2AK3 (unknown origin)
Homo sapiens [29] = organism: Homo sapiens; test: Selectivity for p38alpha MAP kinase (unknown origin) over MYLK3 (unknown origin)
Homo sapiens [30] = organism: Homo sapiens; test: Selectivity for p38alpha MAP kinase (unknown origin) over PDK1 (unknown origin)
Homo sapiens [31] = organism: Homo sapiens; test: Selectivity for p38alpha MAP kinase (unknown origin) over MAPKAPK3 (unknown origin)
Homo sapiens [32] = organism: Homo sapiens; test: Selectivity for p38alpha MAP kinase (unknown origin) over CK1-gamma1 (unknown origin)
Homo sapiens [33] = organism: Homo sapiens; test: Selectivity for p38alpha MAP kinase (unknown origin) over MAP4K2 (unknown origin)
Homo sapiens [34] = organism: Homo sapiens; test: Selectivity for p38alpha MAP kinase (unknown origin) over KIT T670I mutant (unknown origin)
Homo sapiens [35] = organism: Homo sapiens; test: Selectivity for p38alpha MAP kinase (unknown origin) over FRK (unknown origin)
Homo sapiens [36] = organism: Homo sapiens; test: Selectivity for p38alpha MAP kinase (unknown origin) over MKK6 S207D/T211D double mutant (unknown origin)
Homo sapiens [37] = organism: Homo sapiens; test: Selectivity for p38alpha MAP kinase (unknown origin) over YES (unknown origin)
Homo sapiens [38] = organism: Homo sapiens; test: Selectivity for p38alpha MAP kinase (unknown origin) over CHK2 (unknown origin)
Homo sapiens [39] = organism: Homo sapiens; test: Selectivity for p38alpha MAP kinase (unknown origin) over NEK11 (unknown origin)
Homo sapiens [40] = organism: Homo sapiens; test: Selectivity for p38alpha MAP kinase (unknown origin) over DMPK (unknown origin)
Homo sapiens [41] = organism: Homo sapiens; test: Selectivity for p38alpha MAP kinase (unknown origin) over MYLK2 (unknown origin)
Homo sapiens [42] = organism: Homo sapiens; test: Selectivity for p38alpha MAP kinase (unknown origin) over NEK9 (unknown origin)
Homo sapiens [43] = organism: Homo sapiens; test: Selectivity for p38alpha MAP kinase (unknown origin) over wild type FGFR3 (unknown origin)
Homo sapiens [44] = organism: Homo sapiens; test: Selectivity for p38alpha MAP kinase (unknown origin) over CDK9/CycT (unknown origin)
Homo sapiens [45] = organism: Homo sapiens; test: Selectivity for p38alpha MAP kinase (unknown origin) over TYK2 (unknown origin)
Homo sapiens [46] = organism: Homo sapiens; test: Selectivity for p38alpha MAP kinase (unknown origin) over BMX (unknown origin)
Homo sapiens [47] = organism: Homo sapiens; test: Selectivity for p38alpha MAP kinase (unknown origin) over STK39 (unknown origin)
Homo sapiens [48] = organism: Homo sapiens; test: Selectivity for p38alpha MAP kinase (unknown origin) over HIPK4 (unknown origin)
Homo sapiens [49] = organism: Homo sapiens; test: Selectivity for p38alpha MAP kinase (unknown origin) over ZAP70 (unknown origin)
Homo sapiens [50] = organism: Homo sapiens; test: Selectivity for p38alpha MAP kinase (unknown origin) over CDK9/CycK (unknown origin)
Homo sapiens [51] = organism: Homo sapiens; test: Selectivity for p38alpha MAP kinase (unknown origin) over CK2-alpha2 (unknown origin)
Homo sapiens [52] = organism: Homo sapiens; test: Selectivity for p38alpha MAP kinase (unknown origin) over EGFR L858R mutant (unknown origin)
Homo sapiens [53] = organism: Homo sapiens; test: Selectivity for p38alpha MAP kinase (unknown origin) over MARK3 (unknown origin)
Homo sapiens [54] = organism: Homo sapiens; test: Selectivity for p38alpha MAP kinase (unknown origin) over EGFR L861Q mutant (unknown origin)
Homo sapiens [55] = organism: Homo sapiens; test: Selectivity for p38alpha MAP kinase (unknown origin) over PAK3 (unknown origin)
Homo sapiens [56] = organism: Homo sapiens; test: Selectivity for p38alpha MAP kinase (unknown origin) over BRK (unknown origin)
Homo sapiens [57] = organism: Homo sapiens; test: Selectivity for p38alpha MAP kinase (unknown origin) over NEK7 (unknown origin)
Homo sapiens [58] = organism: Homo sapiens; test: Selectivity for p38alpha MAP kinase (unknown origin) over MKNK2 (unknown origin)
Homo sapiens [59] = organism: Homo sapiens; test: Selectivity for p38alpha MAP kinase (unknown origin) over CDK5/p35NCK (unknown origin)
Homo sapiens [60] = organism: Homo sapiens; test: Selectivity for p38alpha MAP kinase (unknown origin) over PRKD2 (unknown origin)
Homo sapiens [61] = organism: Homo sapiens; test: Selectivity for p38alpha MAP kinase (unknown origin) over GSG2 (unknown origin)
Homo sapiens [62] = organism: Homo sapiens; test: Selectivity for p38alpha MAP kinase (unknown origin) over RPS6KA4 (unknown origin)
Homo sapiens [63] = organism: Homo sapiens; test: Selectivity for p38alpha MAP kinase (unknown origin) over GRK3 (unknown origin)
Homo sapiens [64] = organism: Homo sapiens; test: Selectivity for p38alpha MAP kinase (unknown origin) over SNARK (unknown origin)

Measured: Selectivity ratio

Cc1cc(F)c(NC(=O)c2ccsc2)cc1Nc1ccc2c(c1)OCc1ccc(OC[C@H](O)CO)cc1C2=O
> 1000: all assays above
